# Library screen at single concentrations

Amino acid sequences for entries named in this document (tags omitted). Residues count along the entry.
UniProt P9WFT3, whole entry: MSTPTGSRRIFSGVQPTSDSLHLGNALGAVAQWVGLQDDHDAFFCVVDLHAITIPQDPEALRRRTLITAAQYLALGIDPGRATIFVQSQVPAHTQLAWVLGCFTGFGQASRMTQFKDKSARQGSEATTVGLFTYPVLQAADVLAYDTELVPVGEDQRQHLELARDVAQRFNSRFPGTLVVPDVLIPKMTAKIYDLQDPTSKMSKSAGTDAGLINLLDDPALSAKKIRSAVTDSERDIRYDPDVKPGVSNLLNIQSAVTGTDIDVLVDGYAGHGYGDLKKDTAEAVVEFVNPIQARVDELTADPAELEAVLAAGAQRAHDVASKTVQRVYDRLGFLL
UniProt Q4DA54, 1-478: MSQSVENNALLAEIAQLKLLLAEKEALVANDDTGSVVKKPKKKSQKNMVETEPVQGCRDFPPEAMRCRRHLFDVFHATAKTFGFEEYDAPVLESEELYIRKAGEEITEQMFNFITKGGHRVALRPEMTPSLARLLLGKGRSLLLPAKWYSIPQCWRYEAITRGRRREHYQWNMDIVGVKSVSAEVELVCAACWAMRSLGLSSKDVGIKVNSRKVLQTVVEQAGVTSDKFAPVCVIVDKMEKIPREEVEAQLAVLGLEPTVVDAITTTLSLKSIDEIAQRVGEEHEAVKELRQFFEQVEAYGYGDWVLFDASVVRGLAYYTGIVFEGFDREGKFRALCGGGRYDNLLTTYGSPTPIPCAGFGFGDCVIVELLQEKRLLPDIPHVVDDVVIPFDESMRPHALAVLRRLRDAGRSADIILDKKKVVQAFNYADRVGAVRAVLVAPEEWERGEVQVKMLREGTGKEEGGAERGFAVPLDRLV
UniProt Q8IDJ8, 1-583: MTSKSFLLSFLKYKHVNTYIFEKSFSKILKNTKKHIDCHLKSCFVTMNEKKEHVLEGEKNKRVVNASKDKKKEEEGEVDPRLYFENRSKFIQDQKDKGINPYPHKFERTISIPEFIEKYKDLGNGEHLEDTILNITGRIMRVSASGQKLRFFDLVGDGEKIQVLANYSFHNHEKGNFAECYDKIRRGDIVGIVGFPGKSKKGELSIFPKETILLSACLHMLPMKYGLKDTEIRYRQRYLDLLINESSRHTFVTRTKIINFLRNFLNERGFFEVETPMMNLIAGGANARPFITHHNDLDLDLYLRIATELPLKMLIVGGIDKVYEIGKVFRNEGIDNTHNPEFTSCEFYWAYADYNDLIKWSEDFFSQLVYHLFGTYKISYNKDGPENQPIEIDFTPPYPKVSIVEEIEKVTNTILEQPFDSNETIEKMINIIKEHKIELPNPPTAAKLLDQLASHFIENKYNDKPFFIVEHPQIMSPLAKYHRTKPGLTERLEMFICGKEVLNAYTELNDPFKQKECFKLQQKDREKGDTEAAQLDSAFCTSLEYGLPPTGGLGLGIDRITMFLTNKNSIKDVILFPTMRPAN
UniProt P9WNZ1, whole entry: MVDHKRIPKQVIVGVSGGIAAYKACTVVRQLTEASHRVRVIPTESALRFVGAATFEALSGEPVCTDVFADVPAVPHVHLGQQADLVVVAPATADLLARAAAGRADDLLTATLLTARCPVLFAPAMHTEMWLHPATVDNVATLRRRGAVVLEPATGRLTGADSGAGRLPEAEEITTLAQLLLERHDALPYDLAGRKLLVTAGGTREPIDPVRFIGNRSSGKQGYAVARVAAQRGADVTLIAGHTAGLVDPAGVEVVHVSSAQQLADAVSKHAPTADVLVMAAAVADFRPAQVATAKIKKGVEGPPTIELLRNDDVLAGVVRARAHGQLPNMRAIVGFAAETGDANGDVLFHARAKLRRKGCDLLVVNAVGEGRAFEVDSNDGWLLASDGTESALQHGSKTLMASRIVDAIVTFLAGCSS
UniProt I6X8D2, whole entry: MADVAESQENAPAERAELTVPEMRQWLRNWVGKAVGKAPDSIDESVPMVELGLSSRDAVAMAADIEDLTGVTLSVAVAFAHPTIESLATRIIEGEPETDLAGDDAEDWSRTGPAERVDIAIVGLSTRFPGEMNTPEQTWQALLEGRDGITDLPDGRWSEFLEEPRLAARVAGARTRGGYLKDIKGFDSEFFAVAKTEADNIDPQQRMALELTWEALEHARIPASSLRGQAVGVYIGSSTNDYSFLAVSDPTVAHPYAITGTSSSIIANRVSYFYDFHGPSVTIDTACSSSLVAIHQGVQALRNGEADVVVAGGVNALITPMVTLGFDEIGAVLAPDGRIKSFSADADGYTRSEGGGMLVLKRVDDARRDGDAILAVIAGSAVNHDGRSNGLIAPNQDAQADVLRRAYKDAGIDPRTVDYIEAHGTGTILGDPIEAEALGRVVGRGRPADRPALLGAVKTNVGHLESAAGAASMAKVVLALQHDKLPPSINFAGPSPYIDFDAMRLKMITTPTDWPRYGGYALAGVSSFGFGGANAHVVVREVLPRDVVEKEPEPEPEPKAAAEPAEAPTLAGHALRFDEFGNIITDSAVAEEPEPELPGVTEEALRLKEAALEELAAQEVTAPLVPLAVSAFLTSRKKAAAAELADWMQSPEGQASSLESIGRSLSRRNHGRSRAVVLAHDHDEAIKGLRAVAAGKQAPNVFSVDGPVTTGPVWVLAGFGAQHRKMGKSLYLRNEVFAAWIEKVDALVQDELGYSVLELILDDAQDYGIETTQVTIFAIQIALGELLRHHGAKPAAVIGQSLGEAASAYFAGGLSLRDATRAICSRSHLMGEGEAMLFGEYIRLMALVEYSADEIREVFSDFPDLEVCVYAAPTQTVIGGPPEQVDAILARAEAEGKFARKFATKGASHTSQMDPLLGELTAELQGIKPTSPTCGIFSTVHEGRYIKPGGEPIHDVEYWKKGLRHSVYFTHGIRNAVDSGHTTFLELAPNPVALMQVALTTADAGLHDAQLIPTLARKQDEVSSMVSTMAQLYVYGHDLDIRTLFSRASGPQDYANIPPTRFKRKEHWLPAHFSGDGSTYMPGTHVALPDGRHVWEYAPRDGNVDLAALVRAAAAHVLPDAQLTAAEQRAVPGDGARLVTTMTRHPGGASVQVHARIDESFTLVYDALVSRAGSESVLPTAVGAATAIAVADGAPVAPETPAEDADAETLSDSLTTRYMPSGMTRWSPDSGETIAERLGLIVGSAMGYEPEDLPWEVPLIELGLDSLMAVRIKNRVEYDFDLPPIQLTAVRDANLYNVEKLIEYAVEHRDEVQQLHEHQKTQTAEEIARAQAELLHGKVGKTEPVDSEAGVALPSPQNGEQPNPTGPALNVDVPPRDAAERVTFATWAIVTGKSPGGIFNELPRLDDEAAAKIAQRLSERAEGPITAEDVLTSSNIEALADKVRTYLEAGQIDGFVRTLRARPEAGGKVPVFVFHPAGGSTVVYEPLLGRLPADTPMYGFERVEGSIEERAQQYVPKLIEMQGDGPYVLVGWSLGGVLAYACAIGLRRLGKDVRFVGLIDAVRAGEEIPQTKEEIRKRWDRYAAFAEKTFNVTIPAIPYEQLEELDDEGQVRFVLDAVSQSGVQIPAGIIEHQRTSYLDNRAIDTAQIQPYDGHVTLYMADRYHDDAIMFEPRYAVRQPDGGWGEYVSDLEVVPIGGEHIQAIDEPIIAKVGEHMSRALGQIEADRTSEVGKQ

The values are deposited in ChEMBL (CHEMBL3988442, “University of Dundee, Small-Polar-MMV Screening Library” (2021)).

MtTrpRS: 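Enzyme assay of tryptophanyl-tRNA synthetase; the read-out is not stated. Target: Tryptophan-tRNA ligase, Mycobacterium tuberculosis (UniProt P9WFT3). Compounds at 10 µM. Direction is not recorded; retested compounds ran higher, which suggests that high means inhibition. Size under these conditions: about 65,000 compounds, about 64 of them at 50% or above in at least one test.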
TcHisRS: 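Enzyme assay of histidyl-tRNA synthetase; the read-out is not stated. Target: Histidine-tRNA ligase, Trypanosoma cruzi CL Brener (UniProt Q4DA54). Concentration: 30 µM. Higher reads as stronger inhibition (inferred: compounds with an IC50 in retests scored well above the rest). Size under these conditions: about 69,000 compounds, about 31 of them at 50% or above in at least one test.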
PfKRS1: 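Enzyme assay of the cytosolic lysyl-tRNA synthetase in 384-well plates, read by luminescence. Target: Lysine-tRNA ligase, Plasmodium falciparum 3D7 (UniProt Q8IDJ8). Tested at 30 µM. Direction is inferred from only a few compounds that gave an IC50; most scored high, so higher reads as stronger inhibition. About 69,000 compounds were tested under these conditions; 0.071% (about 49) showed 50% or more at least once.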
CoaBC: 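Enzyme assay of CoaBC with a phosphate dye (Biomol Green) read at 650 nm. Target: Coenzyme A biosynthesis protein CoaBC, Mycobacterium tuberculosis (UniProt P9WNZ1). Concentration: 30 µM. Higher reads as stronger inhibition, judged from the few compounds that gave an IC50. Most strong results did not repeat in a second test. About 67,000 compounds were tested under these conditions; 0.06% (about 40) showed 50% or more at least once.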
Pks13 thioesterase: 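Polyketide synthase Pks13, Mycobacterium tuberculosis (UniProt I6X8D2). Enzyme assay of the thioesterase domain of polyketide synthase 13; the read-out is not stated. Compounds at 30 µM. The record gives no direction; the compounds picked for IC50 retests had high values, so higher reads as stronger inhibition. About 67,000 compounds were tested under these conditions; 0.46% (about 300) showed 50% or more at least once.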
Leishmania in macrophages: 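Cell assay of Leishmania donovani living inside macrophages; the read-out is not stated. Tested at 30 µM. Higher reads as stronger inhibition (inferred: compounds with an IC50 in retests scored well above the rest). Of about 69,000 compounds tested this way, about 1,000 (1.5%) reached 50% or more in at least one test.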

Values are the deposited “Percent Effect”, in %.
How 0% and 100% were set is not recorded. Most values in the screen are low, and negative values occur.
The compounds are a random part of those screened.
Two or more numbers in one place are separate tests of the same structure; such repeats can differ widely.
A dash means the value is not listed here; it may have been measured.

| Compound | MtTrpRS | TcHisRS | PfKRS1 | CoaBC | Pks13 thioesterase | Leishmania in macrophages |
|---|---|---|---|---|---|---|
| `O=C(c1cnccn1)N1CCN2C[C@H](Oc3cccc(F)c3)C[C@H]2C1` | -3.253 | 5.473 | 5.56 | 2.581 | -42.73 | - |
| `Br.Cc1cc(C)nc(NCCC(=O)NCCn2ccnc2C)n1` | - | - | - | - | - | 14.48 |
| `CC(C)=CCN1CCN(Cc2nccn2C)[C@H]2CS(=O)(=O)C[C@H]21` | -6.265 | 7.463 | 1.677 | 9.877 | -3.088 | - |
| `O=C(NCC1CCCCO1)c1cc(Cn2cnc3ccccc32)[nH]n1` (centres undefined) | 4.503 | 4.217 | -2.555 | 0.122 | -21 | 18.64 |
| `CC(C)(C)C(=O)N1CCC2(CNS(=O)(=O)c3cnccc3O2)C1` (centres undefined) | 23.94 | -5.325 | -2.708 | 5.263 | -17.03 | -8.212 |
| `CC(C)c1n[nH]c(C(=O)Nc2ccnn2C(C)C)c1Br` | 4.17 | 3.008 | -2.667 | 4.627 | -31.53 | 44.2 |
| `Cc1cc(C)nc(Nc2cccc(C3CCCN(C(C)C)C3)n2)n1` (centres undefined) | - | 7.447 | 4.049 | 3.676 | 5.429 | -12.66 |
| `CNc1nc2c(s1)C(c1ccc(F)cc1Cl)CC(=O)N2` (centres undefined) | 2.983 | 47.2 | 82.03 | 0.3797 | 2.917 | 15.5 |
| `CNC(=O)C1CN(C(=O)Cc2ccc(OC)cc2)Cc2cn(C)nc21` (centres undefined) | -6.593 | 1.13 | 2.074 | -7.022 | -2.71 | 21.07 |
| `Cn1cc(C(=O)Nc2ccc(CC(=O)NCC(F)(F)F)cc2)nn1` | -1.201 | 1.111 | 0.1603 | 4.622 | -30.26 | 13.78 |
| `CCCN(C(=O)c1cc2c([nH]c1=O)CCCC2=O)C1CCCCC1` | 4.198 | 15.48 | 3.072 | 4.412 | -22.75 | 2.783 |
| `Cn1ncc2c(N3CCS(=O)(=O)CC3)nc(C3CCCC3)nc21` | -2.169 | 4.95 | 6.665 | 3.752 | -8.206 | -20.51 |
| `O=C(c1cnccn1)N(CCO)Cc1cc(Br)ccc1F` | 1.232 | 0 | 3.554 | 0.4717 | -0.8574 | -6.767 |
| `O=C(NCC1CC1)C1CSCN1S(=O)(=O)c1ccccc1` (centres undefined) | 3.127 | 10.98 | 5.025 | 3.924 | 11.4 | 4.484 |
| `O=C(c1ccc(-n2cccn2)nc1)N1CCC(c2ccc(O)cc2)CC1` | -5.004 | -4.706 | 4.131 | -0.9828 | 7.652 | 16.68 |
| `CN(C)c1cc(CNC(=O)Nc2ccc(N3CCCC3)nc2)ccn1` | -2.807 | 3.812 | 2.148 | 6.053 | -11.18 | 44.92 |
| `Cc1cc(C)cc(OCCN(C)C(=O)NC(C)c2nncn2C)c1` (centres undefined) | 18.41 | 5.65 | -0.006707 | 1.305 | -8.421 | -5.442 |
| `CC1=C(CCN2C[C@H](O)[C@@H](N3CCOCC3)C2)C(C)(C)CCC1` | 4.224 | 1.266 | 1.021 | 3.606 | -8.898 | -12.68 |
| `O=C(N1CCOCC1)[C@@]12CCO[C@@H]1CCN(CC1CCCCC1)C2` | -5.025 | 4.918 | -6.122 | 2.288 | -19.93 | - |
| `Nc1c(N2CCOCC2)ncnc1N1CCOCC1` | - | 0 | 1.728 | 3.641 | 44.89 | 6.528 |
| `NC(=O)C1CCN(Cn2nc(-c3ccccc3)oc2=O)CC1` | 0.58 | -4.184 | -0.5909 | 8.636 | -15.51 | -15.47 |
| `O=C(O)C(F)(F)F.O=C(O)C(F)(F)F.O=C(O)C(F)(F)F.[H][C@@]12CN(Cc3nccs3)CCC[C@]1(C(=O)OCC)CN(CCN(C)C)C2` | - | - | - | - | - | 41.16 |
| `CCOCC1c2c(cnn2C)CCN1C(=O)c1cc(C)on1.O=C(O)C(F)(F)F` (centres undefined) | - | - | - | - | - | -7.161 |
| `CC(C)NC(=O)N1CCN(CC2CC2)c2ncccc2C1.O=C(O)C(F)(F)F` | - | - | - | - | - | 5.225 |
| `CS(=O)(=O)N1CCOCC2(CCN(C(=O)c3ccncc3)CC2)C1` | 2.252 | 1.754 | 7 | -3.083 | 13.95 | - |
| `CCN1C[C@H]2C3(CCN(C(=O)NC(C)C)CC3)CC[C@@]2(C(=O)N(C)C)C1` | -6.46 | -2.062 | -0.1482 | 2.217 | -19.65 | - |
| `COCC1CN(Cc2sccc2C)Cc2nnn(CC3CC3)c21.O=C(O)C(F)(F)F` (centres undefined) | - | - | - | - | - | 24.67 |
| `Fc1cnc(N2CCN(Cc3ccc(-c4cc[nH]n4)o3)CC2)nc1` | -5.008 | 5.682 | 2.083 | 4.069 | -5.354 | 12.14 |
| `Cc1noc(C)c1CNC(=O)N1CCC(Cc2cnn(C)c2)C1` (centres undefined) | -4.264 | 5.882 | 1.628 | 2.813 | -1.001 | 13.15 |
| `O=C(c1nc(-c2ccc3cc[nH]c3c2)no1)N1CCCC1` | 1.407 | -0.5464 | 0.9679 | 2.288 | -35.57 | -9.054 |
| `CC(NC(=O)CNC(=O)OC(C)(C)C)c1ccc(Cl)s1` (centres undefined) | 5.353 | 0.5405 | 1.364 | 59.55 & 5.291 | 6.352 | -26.83 |
| `O=C(c1cnccn1)N1CCc2ncnc(-c3cccnc3)c2CC1` | 1.154 | -2.703 | 0.6407 | 0.8883 | -2.303 | - |
| `Cc1ccc2c(c1)[C@@H](CC(=O)N1CCOCC1)CCO2` | - | 10.17 | 3.413 | -4.699 | 12.99 | 11.68 & 7.728 |
| `CC(C)CNC(=O)C1=NOC2(CCN(Cc3ccc(C(C)C)cc3)C2)C1` (centres undefined) | - | 5.556 | 3.219 | 0.9756 | -7.3 | 25.46 |
| `CCSCC(C)NCc1nc(-c2cccnc2)no1` (centres undefined) | -0.5092 | 1.339 | 3.578 | 2.041 | 3.589 | -21.84 |
| `Cc1cc(-c2cnc(N3CCN(C)CC3)nc2-c2ccc(C)s2)on1` | -1.254 | 3.784 | 6.522 | 1.111 | -30.65 | 19.27 |
| `Fc1cc(Cl)cnc1N1CCCC(c2nccn2CC2CC2)C1` (centres undefined) | -3.051 | 3.863 | -4.804 | -0.5981 | -11.42 | 23.83 |
| `O=C1CC2(CCN(C(=O)c3ccccc3)C2)Nc2ccccc2N1` (centres undefined) | -0.2593 | 2.959 | 3.151 | 3.947 | -43.33 | 23.99 |
| `CCC1=N[C@@]2(CC[C@@H]3CN(C(=O)NC(C)C)C[C@@H]32)C(=O)N1C` | -0.1876 | -0.5348 | 3.143 | 6.832 | -16.43 | - |
| `CC(=O)c1ccc(C(=O)N2C[C@@H]3CC[C@H](C2)N(CC2CCC2)C3)s1` | -0.4461 | 25.41 | 5.228 | -15.91 | -25.77 | - |
| `Cn1cc(C(O)CNC(=O)Nc2cc(F)ccc2-n2cccn2)cn1` (centres undefined) | -0.2601 | 1.587 | 4.46 | 2.273 | -6.16 | -34.94 |
| `Cc1cnccc1NCCNC1CCSCC1` | 5.494 | 4.327 | 3.431 | -2.417 | -16.92 | 11.98 |
| `CCN(Cc1nc(-c2ccco2)no1)Cc1cccc2c1OCO2` | -2.183 | 5.102 | 4.014 | -0.216 | -4.561 | 8.27 |
| `O=C(O)C(F)(F)F.[H][C@@]12CN(CC3CC3)CC[C@]1([H])CN(c1cnccn1)C2` | - | - | - | - | - | 30.4 |
| `FC(F)(F)c1ccnc(N2CCCC(N3CCOCC3)C2)c1` (centres undefined) | -2.626 | 9.195 | -0.7349 | -1.353 | -25.73 | 17.22 |
| `CCc1nnc2n1CCN(C(=O)c1ccc(C(F)(F)F)nc1C)C2` | -6.373 | 3.008 | 13.29 | -3.085 | -23.69 | 16.05 |
| `Cn1ccnc1CN1CCC2(CC1)CCN(Cc1ccoc1)C2` | -3.092 | 7.843 | 4.687 | 2.606 | -31.74 | - |
| `Cc1ccnn1CC(=O)Nc1cc(-c2ccncc2)[nH]n1` | -8.622 | 4.762 | -1.107 | 6.11 | 11.19 | 10.22 |
| `COc1ccc(OCCCN(C)C(=O)C2CCCN2C(N)=O)cc1` (centres undefined) | -0.9828 | -0.5525 | 6.391 | -5.95 | -10.04 | 9.059 |
| `O=C(c1ccco1)N1CCO[C@@H]2CNCC[C@@H]2C1` | 1.407 | 3.922 | -0.5822 | -1.5 | -32.01 | - |
| `O=C(O)C(F)(F)F.[H][C@@]12COC[C@]1(COCC)CN(Cc1ccc3c(c1)OCO3)C2` | - | - | - | - | - | 36.69 |

Some entries from above, unchanged:

Compound,MtTrpRS,TcHisRS,PfKRS1,CoaBC,Pks13 thioesterase,Leishmania in macrophages
CC(C)(C)C(=O)N1CCC2(CNS(=O)(=O)c3cnccc3O2)C1 (centres undefined),23.94,-5.325,-2.708,5.263,-17.03,-8.212
O=C(c1nc(-c2ccc3cc[nH]c3c2)no1)N1CCCC1,1.407,-0.5464,0.9679,2.288,-35.57,-9.054
Cc1cc(C)nc(Nc2cccc(C3CCCN(C(C)C)C3)n2)n1 (centres undefined),-,7.447,4.049,3.676,5.429,-12.66
O=C1CC2(CCN(C(=O)c3ccccc3)C2)Nc2ccccc2N1 (centres undefined),-0.2593,2.959,3.151,3.947,-43.33,23.99